Measurements: article PMC4533223, “Structures of CD6 and Its Ligand CD166 Give Insight into Their Interaction” (Structure(London, England:1993), 2015)
No constants are given. Whether binding was seen depends on the method and setting. Some results given as binding are weak or reduced against the parent protein; the word gives no strength. Where a sequence is shown, tags or fusion partners need not be part of it. Each block holds one binder with its values, some of them ahead of it.

Experiments:
[1] = molecular target: T1, human CD6 domains 1-3 plus stalk fused to rat CD4 domains 3 and 4 (CD6 d1-3S, wild type, S351) (human) (UniProt P30203); assay: SPR; BIAcore 3000; CD6-CD4d3+4 chimeras (wild type and alanine mutants) immobilised via OX68 mAb; soluble CD166d1-5 injected at approximately the KD (0.1 µM); 25 °C, HBS-EP; equilibrium response as percent of wild type
T1 sequence (chain, biotin on the tag (immobilisation to streptavidin, Figure S1)): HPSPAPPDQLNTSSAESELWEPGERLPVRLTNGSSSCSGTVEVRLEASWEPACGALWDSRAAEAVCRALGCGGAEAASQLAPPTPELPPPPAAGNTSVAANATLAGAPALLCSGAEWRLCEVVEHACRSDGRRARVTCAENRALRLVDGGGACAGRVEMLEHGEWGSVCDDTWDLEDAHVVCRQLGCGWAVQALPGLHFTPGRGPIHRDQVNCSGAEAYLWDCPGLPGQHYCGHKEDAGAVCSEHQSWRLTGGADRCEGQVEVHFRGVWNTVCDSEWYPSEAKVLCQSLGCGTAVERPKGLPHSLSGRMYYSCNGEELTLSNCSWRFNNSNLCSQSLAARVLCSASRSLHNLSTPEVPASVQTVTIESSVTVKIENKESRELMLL

[2] = molecular target: soluble recombinant human CD6 SRCR domains 1-3, His-tagged (human) (UniProt P30203); assay: SEC-MALS; Superdex200 10/30 in 50 mM Tris.HCl, pH 7.5, 150 mM NaCl, 0.4 ml/min; CD6 alone 39 µM, CD166 VVC alone 28 µM, equimolar mixture 27 µM each; samples diluted approximately 10-fold on the column; both purified
[3] = molecular target: T2, human CD166 extracellular region fused to rat CD4 domains 3 and 4 (CD166-CD4d3+4), wild type (human) (UniProt Q13740); assay: SPR; BIAcore 3000; CD166-CD4d3+4 chimeras (wild type and mutants) immobilised via OX68 antibody; soluble CD6 His injected at approximately the KD (0.1 µM); 25 °C, HBS-EP; equilibrium response as percent of wild type; only the binder purified
T2 sequence: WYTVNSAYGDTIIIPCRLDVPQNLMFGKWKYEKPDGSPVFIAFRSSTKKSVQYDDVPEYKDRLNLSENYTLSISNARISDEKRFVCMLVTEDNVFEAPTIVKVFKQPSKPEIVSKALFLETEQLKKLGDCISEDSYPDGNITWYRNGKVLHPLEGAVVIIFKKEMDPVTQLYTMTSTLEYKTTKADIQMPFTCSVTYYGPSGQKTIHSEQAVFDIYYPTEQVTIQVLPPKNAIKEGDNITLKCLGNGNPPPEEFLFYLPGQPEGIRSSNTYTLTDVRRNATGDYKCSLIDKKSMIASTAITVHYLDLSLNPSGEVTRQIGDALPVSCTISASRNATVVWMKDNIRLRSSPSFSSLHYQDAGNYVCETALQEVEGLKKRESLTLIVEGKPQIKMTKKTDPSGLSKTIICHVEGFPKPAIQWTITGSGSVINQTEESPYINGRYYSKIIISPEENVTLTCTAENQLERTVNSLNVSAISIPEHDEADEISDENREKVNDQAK

binding [1]: binds
B1: soluble human CD166 domains 1-5 (CD166d1-5), 6 His tagged (domain or fragment, UniProt Q13740 28-527)
chain: T2 sequence

binding [2]: binds weakly
binding [3]: binds
B2: soluble recombinant human CD6 SRCR domains 1-3, His-tagged (domain or fragment, UniProt P30203 18-364)
chain: HPSPAPPDQLNTSSAESELWEPGERLPVRLTNGSSSCSGTVEVRLEASWEPACGALWDSRAAEAVCRALGCGGAEAASQLAPPTPELPPPPAAGNTSVAANATLAGAPALLCSGAEWRLCEVVEHACRSDGRRARVTCAENRALRLVDGGGACAGRVEMLEHGEWGSVCDDTWDLEDAHVVCRQLGCGWAVQALPGLHFTPGRGPIHRDQVNCSGAEAYLWDCPGLPGQHYCGHKEDAGAVCSEHQSWRLTGGADRCEGQVEVHFRGVWNTVCDSEWYPSEAKVLCQSLGCGTAVERPKGLPHSLSGRMYYSCNGEELTLSNCSWRFNNSNLCSQSLAARVLCSASR
